Assay results: PubChem BioAssay AID2685 (National Center for Advancing Translational Sciences (NCATS), 2010)
This is one part of the list. The main result of the screen is listed elsewhere. These columns were measured beside it and carry no call. The list favours compounds with an active or inconclusive main result. The note in brackets gives the kind of curve behind each potency; many fits are weak.

Experiment: qHTS Assay for Lipid Storage Modulators in Drosophila S3 Cells;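 for cell number change: cells counted by Cell Tracker Red CMTPX staining in the red channel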
Conditions: BODIPY lipid droplet fluorescence, 18-24 h; for cell number change: measured here: cell count max response, cells fed with added oleic acid
In short: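 Laser-scanning cytometry quantifies lipid droplet accumulation (500–530 nm total intensity; droplet/cell object ratio) in oleic acid-fed (400 uM added) Drosophila S3 cells treated with a concentration series. 20 uM Triacsin C defined 100% inhibition.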

[1] = measured here: cell number channel AC50, cells fed with added oleic acid
[2] = measured here: lipid fluorescence (Fed channel) AC50, cells fed with added oleic acid

CSc1ccc(CN2CCN(C(=O)COc3ccc(C)cc3)CC2)cc1
cell number change: -12.8%

COc1cccc(CNCCc2ccc3c(c2)OCO3)c1OC
cell number change: 2.92%

COc1cc(OC)c2c(c1)OCC1CON(C)C21 (centres undefined)
cell number change: -6.29%
AC50 [1]: 0.146 µM [rising, full curve, poor fit]
AC50 [2]: 0.164 µM [rising, full curve, poor fit]

COc1cccc(OC)c1C(=O)Nc1nc(N)n(-c2ccccc2)n1
cell number change: 15%

c1ccc(-c2cc(-c3ccccc3)[n+](-c3ccccc3)c(-c3ccccc3)c2)cc1
cell number change: -49%

CCCCn1c(N)c(C(=O)OCCOC)c2nc3ccccc3nc21
cell number change: 18%
AC50 [2]: 23.1 µM [rising, single point]

Cc1cccc(NP(=O)(Oc2ccccc2F)Oc2ccccc2F)c1
cell number change: -7.35%

CCOP(=O)(OCC)C(O)c1ccccc1 (centres undefined)
cell number change: -6.32%

CN(C)P1(N(C)C)=NC(C(F)(F)F)=NC(C(F)(F)F)=N1
cell number change: -1.65%
AC50 [2]: 29.1 µM [falling, single point]

CC(=NCC1CCCO1)c1c(O)n(-c2ccccc2)c(=O)[nH]c1=O (centres undefined)
cell number change: -10.5%
AC50 [2]: 5.8 µM [rising, single point]

CC(=O)N1CCCSC1=Nc1ccccc1
cell number change: -21.1%
AC50 [2]: 29.1 µM [falling, single point]

COc1ccc(-n2c(O)c(C=NCc3ccc4c(c3)OCO4)c(=O)[nH]c2=O)cc1
cell number change: 0.951%
AC50 [1]: 0.13 µM [falling, full curve, poor fit]
AC50 [2]: 0.0731 µM [falling, full curve, poor fit]

CCCC(=O)NC(Oc1ccc(OC)cc1)C(Cl)(Cl)Cl (centres undefined)
cell number change: 1.05%
AC50 [2]: 0.651 µM [falling, single point]

C=CCn1c(O)c(C(CC)=NCc2ccc3c(c2)OCO3)c(=O)[nH]c1=O
cell number change: 6.06%
AC50 [2]: 7.31 µM [rising, single point]

CCC1=Nc2cc(C(=O)N3CCC4(CC3)OCCO4)ccc2Sc2ccc(Br)cc21
cell number change: -17.7%

O=c1cc(O)c2ccccc2[nH]1
AC50 [1]: 0.206 µM [falling, full curve, poor fit]

CCOC(=O)COc1ccc2c(c1)c(C(C)=O)c(C)n2Cc1ccccc1
cell number change: 27.5%
AC50 [2]: 11.6 µM [rising, partial curve]

C1=CC(Cc2cncs2)c2ccccc21 (centres undefined)
cell number change: 15.8%
AC50 [2]: 29.1 µM [rising, single point]

CCCNC(=O)N1[C@H]2CC[C@@H]1C(C(=O)OC)=C(c1ccc(F)cc1OCc1ccccc1)C2
cell number change: -23.6%
AC50 [1]: 4.11 µM [falling, single point]
AC50 [2]: 6.51 µM [falling, single point]

CCOC(=O)c1c(C)n(Cc2ccccc2)c2ccc(OCC(O)CN3C(=O)CNC3=O)cc12 (centres undefined)
cell number change: 0.281%
AC50 [1]: 0.411 µM [rising, partial curve, poor fit]
AC50 [2]: 0.326 µM [rising, full curve]

CCN1CCN(c2ccc([N+](=O)[O-])cc2C=C2C(=O)NC(=O)NC2=O)CC1
cell number change: 16.7%
AC50 [2]: 0.116 µM [falling, full curve, poor fit]

CN(CCc1ccccc1)Cc1ccccc1[N+](=O)[O-]
cell number change: 0.462%

Cc1ccc(C2(O)CC(C)N(C)CC2C)cc1 (centres undefined)
cell number change: -35.2%
AC50 [1]: 14.6 µM [falling, partial curve]
AC50 [2]: 5.8 µM [falling, single point]

CCN1C(=O)C(=Cc2c(C)n(CC(=O)NCC3CCCO3)c3ccccc23)C(=O)N(CC)C1=S (centres undefined)
cell number change: 15.5%
AC50 [2]: 18.4 µM [rising, single point]

Nc1ccc2nonc2c1[N+](=O)[O-]
cell number change: -29.9%
AC50 [1]: 0.164 µM [falling, full curve, poor fit]
AC50 [2]: 0.13 µM [falling, full curve]

Cc1ccccc1-n1c(-c2ccoc2)nc2ccccc2c1=O
cell number change: 128%
AC50 [1]: 25.9 µM [rising, partial curve]

OCCN(CC#CC(O)(c1ccccc1)C1CCCC1)CCO (centres undefined)
cell number change: -0.14%
AC50 [2]: 0.00461 µM [falling, full curve, poor fit]

CCCCCCN=C(CC)c1c(O)n(CCCC)c(=O)[nH]c1=O
cell number change: -43.6%
AC50 [1]: 29.1 µM [falling, single point]
AC50 [2]: 25.9 µM [rising, single point]

CC(C)=CCc1c(O)cc2c(c1O)C(=O)CC(c1ccc(O)cc1)O2 (centres undefined)
cell number change: -73.2%
AC50 [1]: 23.1 µM [falling, partial curve]
AC50 [2]: 20.6 µM [falling, partial curve]

CN(C)C(Cc1ccccc1)C(=O)c1ccc(-c2ccccc2)cc1 (centres undefined)
AC50 [1]: 0.366 µM [rising, full curve]
AC50 [2]: 0.326 µM [rising, full curve]

Cc1cccc(N2C(=O)/C(=C/N3CCN(C(=O)c4ccco4)CC3)C(=O)NC2=S)c1
cell number change: 37.4%
AC50 [1]: 20.6 µM [rising, single point]
AC50 [2]: 29.1 µM [rising, single point]

C[C@H]1CCCC(=O)CCC/C=C/c2cc(O)cc(O)c2C(=O)O1
cell number change: -49%
AC50 [1]: 29.1 µM [falling, partial curve, poor fit]
AC50 [2]: 29.1 µM [falling, single point]

COc1ccccc1/C=N/N=C(/N)N[N+](=O)[O-]
cell number change: 86%
AC50 [1]: 5.17 µM [rising, partial curve]

CCc1ccc(N2C(=O)NC(=O)/C(=C\C=C\c3ccco3)C2=O)cc1
cell number change: -38.1%
AC50 [1]: 20.6 µM [falling, single point]

COC(=O)C1=C(c2ccc(C(C)=O)cc2)C[C@@H]2CC[C@H]1N2C(=O)NC1Cc2ccccc2C1
cell number change: 3.62%
AC50 [2]: 0.00651 µM [rising, full curve, poor fit]

CCOC(=O)c1cn2nc(OP(=S)(OCC)OCC)cc2nc1C
cell number change: -5.7%
AC50 [2]: 29.1 µM [rising, single point]

Cn1c(=O)c2nncnc2n(C)c1=O
cell number change: 3.22%
AC50 [1]: 0.0517 µM [rising, full curve, poor fit]

Cc1cc(O)c2c(c1)OC(C)(C)C1=C2CC(C)CC1 (centres undefined)
cell number change: -38.4%
AC50 [1]: 20.6 µM [falling, single point]
AC50 [2]: 29.1 µM [falling, single point]

CN1CCN(CC(=O)Nc2ccc([N+](=O)[O-])cc2C(=O)c2ccccc2)CC1
cell number change: 80.6%

COc1ccc(-n2c(O)c(C(C)=Nc3ccc4c(c3)CCC4)c(=O)[nH]c2=O)cc1
cell number change: -43.9%
AC50 [1]: 1.84 µM [falling, partial curve]
AC50 [2]: 6.51 µM [falling, full curve]

O=C(C(=O)N1CCOCC1)c1cn(CCCOc2ccccc2)c2ccccc12
cell number change: -11.8%
AC50 [1]: 0.116 µM [falling, full curve, poor fit]
AC50 [2]: 7.31 µM [falling, partial curve, poor fit]

CNCCc1c[nH]c2ccccc12
AC50 [1]: 4.61 µM [rising, single point]

CCOC(=O)C(O)(c1ccc(NC(=S)NC(=O)c2ccc(Cl)cc2Cl)cc1)C(F)(F)F (centres undefined)
cell number change: -33.8%
AC50 [1]: 32.6 µM [falling, single point]

O=c1[nH]c(CN2CCNCC2)nc2ccccc12
cell number change: -2.38%

CCN(CC)P(=S)(c1c(C)nc2ccccn12)c1c(C)nc2ccccn12
cell number change: -8.64%

COc1ccccc1CC1C(=O)C2CCN1CC2 (centres undefined)
cell number change: 14.6%

COC(=O)C1=C(c2c(C)noc2C)C[C@@H]2CC[C@H]1N2C(=O)N1CCCCC1
cell number change: -19.3%
AC50 [1]: 2.06 µM [falling, single point]
AC50 [2]: 0.184 µM [rising, full curve, poor fit]

CC(C)n1c(O)c(C2c3cc(Cl)ccc3Oc3[nH]c(=O)n(C(C)C)c(=O)c32)c(=O)[nH]c1=O (centres undefined)
cell number change: -46.8%
AC50 [1]: 16.4 µM [falling, single point]
AC50 [2]: 18.4 µM [falling, single point]

CN(C)CCCNCC(=O)Nc1ccc(Cl)cc1C(=O)c1ccccc1
cell number change: 19.2%

C=CCn1c(O)c(C(C)=NCCCn2ccnc2)c(=O)[nH]c1=O
cell number change: 23.2%

O=C(NC(C(Cl)Cl)N1CCOCC1)c1ccccc1 (centres undefined)
cell number change: 30.8%
AC50 [1]: 32.6 µM [rising, single point]

O=c1cccc2n1CC1CC2CN(S(=O)(=O)c2cc(Cl)ccc2Cl)C1 (centres undefined)
AC50 [1]: 6.51 µM [rising, single point]
AC50 [2]: 0.231 µM [rising, single point]

Cc1cc(S(=O)(=O)NCC(C)C)ccc1OCC(=O)N1CCN(Cc2ccccc2)CC1
cell number change: -21.8%
AC50 [2]: 16.4 µM [falling, single point]

Clc1cccc(CNCCc2c[nH]c3ccccc23)c1
cell number change: -35.2%
AC50 [1]: 29.1 µM [falling, single point]

CCOC(=O)N(c1ccccc1)P1(=S)OCC(C)O1 (centres undefined)
cell number change: -6.09%
AC50 [1]: 0.00517 µM [falling, full curve, poor fit]

Cc1cc(Cc2ccc(N)c(C)c2)ccc1N
AC50 [1]: 0.00517 µM [rising, full curve, poor fit]

Cc1nn(Cc2ccccc2)c(C)c1C(=O)OCC(=O)Nc1cc(S(C)(=O)=O)ccc1Cl
cell number change: 25.8%
AC50 [2]: 29.1 µM [rising, single point]

COC(=O)C1=C(c2cccc(OCc3ccccc3)c2)C[C@@H]2CC[C@H]1N2C(=O)NCCCc1ccccc1
cell number change: 2.76%
AC50 [1]: 1.84 µM [rising, partial curve, poor fit]

CC[n+]1c(SC)ccc2cc(OC)ccc21
AC50 [1]: 1.03 µM [rising, full curve]
AC50 [2]: 5.8 µM [rising, single point]

CCOc1cc2c(cc1OCC)-n1cccc1C(c1cc(C)c(OC)cc1C)NC2 (centres undefined)
cell number change: 16.7%
AC50 [1]: 1.84 µM [rising, partial curve]
AC50 [2]: 13 µM [falling, partial curve]
